The source of these data is PubChem BioAssay AID1487 (National Center for Advancing Translational Sciences (NCATS), 2009).

Some of the results follow. These are further read-outs of the screen, such as a control signal, another cell line or another target. No call is given for them. Compounds called inactive in the main read-out are mostly missing here. Words in brackets tell the shape of the fitted curve; partial curves, single points and poor fits give uncertain potencies.

This experiment in a line: qHTS Assay for Modulators of Lamin A Splicing. Conditions: HeLa LMNA splicing GFP/RFP minigene ratio, 48 h. The method, boiled down:
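S3 HeLa cells stably expressing lamin A-EGFP splicing minigene plus DsRed2, 600 cells/well, 48 h compound exposure at 37C. Laser-scanning cytometry; analysed as GFP (500-530 nm)/RFP (575-640 nm) total intensity ratio; 0.5% DMSO vehicle.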
(In qHTS, concentration-response curves come from the screen itself.)

[1] abbreviates: measured here: RFP viability control channel.
The mark [2] stands for this setting: measured here: GFP splicing reporter channel.

In general, AC50 refers to the concentration at which the activity in the assay is half-maximal. Consider `O=S(=O)(c1c(F)cccc1F)N1CCN(C(=S)NCc2ccc3c(c2)OCO3)CC1`, for which the AC50 under setting [1] was 35.5 µM [rising, partial curve, poor fit].

As to `O=C(NNC(=S)NC1CCCCC1)c1sc2ccccc2c1Cl`, under setting [1], the half-maximal activity concentration (AC50) is 3.55 µM [rising, full curve]. As to `O=C(NCc1cccnc1)c1cccc(NC(=O)c2ccco2)c1`, under setting [2], the AC50 was 1.41 µM [rising, partial curve]. Regarding `Cc1[nH]n(-c2ccccc2)c(=O)c1/C=N/NC(=O)C(C)C`, the AC50 under setting [1] was 2.82 µM [rising, single point]. Regarding `O=C(CCc1nc(-c2ccccc2F)no1)NCCN1CCc2ccccc2C1`, the AC50 is 0.0112 µM [falling, full curve, poor fit] under setting [2] and 0.00447 µM [falling, full curve, poor fit] under setting [1]. As for `Cc1cc(C)c2c(CN3CCN(Cc4ccc5c(c4)OCO5)CC3)cc(=O)oc2c1C`, under setting [2], the AC50 is 8.91 µM [rising, partial curve]. For `O=[N+]([O-])c1cc(S(=O)(=O)Nc2ccc(Cl)cc2)ccc1N/N=C/c1ccncc1`, the AC50 under setting [1] is 8.91 µM [rising, partial curve, poor fit]. On to `Cc1c(CCNC(=O)Cc2ccccc2)sc2nc(-c3ccc(F)cc3)nn12`, for which the AC50 under setting [2] was 10 µM [rising, partial curve]. On to `CN(C)C/C=C(\c1ccc(Br)cc1)c1cccnc1`, for which the AC50 under setting [2] is 0.355 µM [falling, full curve, poor fit]. As to `Cc1c(C(=O)c2ccc(Cl)cc2[N+](=O)[O-])c2ccccn2c1CCC#N`, under setting [1], the AC50 is 12.6 µM [rising, single point]. For `Cc1ccc2nc3c(cc(C(N)=S)c(=N)n3CCCOC(C)C)c(=O)n2c1`, the AC50 under setting [1] is 14.1 µM [rising, single point]. Take `COc1ccccc1C(=O)Oc1cc(N)n(S(=O)(=O)c2ccccc2)n1`: the half-maximal activity concentration (AC50) was 0.0447 µM [falling, full curve, poor fit] under setting [2] and 35.5 µM [falling, partial curve, poor fit] under setting [1]. As for `Cc1cccn2c(=O)c3cc(C#N)c(=O)n(CCCN4CCOCC4)c3nc12`, under setting [1], the AC50 was 11.2 µM [rising, partial curve].

Regarding `CCNC(=S)N/N=C(\C)c1ccc(Cl)s1`, the AC50 was 12.6 µM [rising, partial curve, poor fit] under setting [2] and 14.1 µM [rising, single point] under setting [1]. As to `CCN(CC)C(=O)Oc1ccc2c(=O)c(-c3ccc(OC)cc3)c(C)oc2c1`, the AC50 runs as follows: under setting [2], 20 µM [rising, partial curve, poor fit]; under setting [1], 20 µM [rising, partial curve]. Regarding `CC(C)(C)NC(=O)C(c1ccncc1)N(Cc1ccco1)C(=O)c1ccc(-c2ccccc2)[nH]1` (stereo not given), under setting [1], the AC50 was 22.4 µM [falling, single point].
